# The supplement of paper PMC6331611
# ± gives the standard deviation of the averaged measurements. Over roughly 1,600 compounds, “normalized intracellular growth (luminescence, IQM-normalized) in RAW264.7 macrophages” has its median near 1; the lowest 2% begin near 0.43. The list shows a part of the results.
# Tested on: Salmonella enterica serovar Typhimurium SL1344
# Assay: normalized intracellular growth (luminescence, IQM-normalized) in RAW264.7 macrophages (fraction of plate interquartile mean); higher = more bacterial growth (less inhibition)
# Conditions: 10 µM
SMILES,normalized intracellular growth (time point: T3 (3 h)),normalized intracellular growth (time point: Tfinal (~6 h))
C[C@]12CCC(=O)C=C1C=C[C@@H]1[C@@H]2CC[C@@]2(C)[C@H]1CC[C@@]21CCC(=O)O1,1.03 ± 0.024,1.29 ± 0.029
COCCOC(=O)C1=C(C)NC(C)=C(C(=O)OC(C)C)C1c1cccc([N+](=O)[O-])c1 (configuration not stated),0.964 ± 0.03,1.12 ± 0.06
NCCS,1.13 ± 0.061,0.9 ± 0.22
COc1c(C)c2c(c(O)c1C/C=C(\C)CCC(=O)OCCN1CCOCC1)C(=O)OC2,1 ± 0.064,1.42 ± 0.078
CN1C(C(=O)Nc2ccccn2)=C(O)c2ccccc2S1(=O)=O,0.907 ± 0.24,0.943 ± 0.079
NC(=O)c1ccc[n+]([C@@H]2O[C@H](COP(=O)([O-])OP(=O)(O)OC[C@H]3O[C@@H](n4cnc5c(N)ncnc54)[C@H](O)[C@@H]3O)[C@@H](O)[C@H]2O)c1,0.93 ± 0.04,1.27 ± 0.076
NCC(=O)CCC(=O)O,1.09 ± 0.029,1.02 ± 0.042
COc1ccc(CN(CCN(C)C)c2ncccn2)cc1,1.1 ± 0.06,1.1 ± 0.093
O=C(O)/C=C/C(=O)O,1.14 ± 0.1,1.03 ± 0.16
O=C(O)C[C@H](O)C[C@H](O)/C=C/c1c(C2CC2)nc2ccccc2c1-c1ccc(F)cc1,1.2 ± 0.096,1.17 ± 0.056
Cc1ccc(C)c(OCCCC(C)(C)C(=O)O)c1,0.941 ± 0.056,0.968 ± 0.068
O=C(CCCN1CCC(O)(c2ccc(Cl)cc2)CC1)c1ccc(F)cc1,0.957 ± 0.056,1 ± 0.085
CN(C)CCN(Cc1ccc(Cl)cc1)c1ccccn1,0.997 ± 0.03,1.01 ± 0.11
CCCCCCCCCCOc1cc2c(O)c(C(=O)OCC)cnc2cc1OCC,0.942 ± 0.08,0.973 ± 0.13
COc1ccc([C@@H]2Sc3ccccc3N(CCN(C)C)C(=O)[C@@H]2OC(C)=O)cc1,1.019 ± 0.0067,1.03 ± 0.044
CC(C[N+](C)(C)C)OC(N)=O (configuration not stated),1.01 ± 0.036,0.908 ± 0.07
NCCc1cc[nH]n1,1.07 ± 0.017,1.24 ± 0.14
Cc1c(NC(C)C)c(=O)n(-c2ccccc2)n1C,0.98 ± 0.017,0.917 ± 0.22
Cc1ccc(C(=O)C(C)CN2CCCCC2)cc1 (configuration not stated),1.04 ± 0.017,0.872 ± 0.049
CNCC[C@@H](Oc1ccccc1C)c1ccccc1,1.01 ± 0.013,0.902 ± 0.042
O=C(CCCCC(=O)Nc1c(I)cc(I)c(C(=O)O)c1I)Nc1c(I)cc(I)c(C(=O)O)c1I,1.08 ± 0.034,1.04 ± 0.026

# Record cards (already shown). Order of values: normalized intracellular growth (time point: T3 (3 h)) | normalized intracellular growth (time point: Tfinal (~6 h))
# CNCC[C@@H](Oc1ccccc1C)c1ccccc1 in the list: 1.01 ± 0.013 | 0.902 ± 0.042
# NCCS in the list: 1.13 ± 0.061 | 0.9 ± 0.22
